# PMC5670223
# Sequences of proteins named here, by UniProt entry; tags and fusion partners are left off.
# UniProt O48963: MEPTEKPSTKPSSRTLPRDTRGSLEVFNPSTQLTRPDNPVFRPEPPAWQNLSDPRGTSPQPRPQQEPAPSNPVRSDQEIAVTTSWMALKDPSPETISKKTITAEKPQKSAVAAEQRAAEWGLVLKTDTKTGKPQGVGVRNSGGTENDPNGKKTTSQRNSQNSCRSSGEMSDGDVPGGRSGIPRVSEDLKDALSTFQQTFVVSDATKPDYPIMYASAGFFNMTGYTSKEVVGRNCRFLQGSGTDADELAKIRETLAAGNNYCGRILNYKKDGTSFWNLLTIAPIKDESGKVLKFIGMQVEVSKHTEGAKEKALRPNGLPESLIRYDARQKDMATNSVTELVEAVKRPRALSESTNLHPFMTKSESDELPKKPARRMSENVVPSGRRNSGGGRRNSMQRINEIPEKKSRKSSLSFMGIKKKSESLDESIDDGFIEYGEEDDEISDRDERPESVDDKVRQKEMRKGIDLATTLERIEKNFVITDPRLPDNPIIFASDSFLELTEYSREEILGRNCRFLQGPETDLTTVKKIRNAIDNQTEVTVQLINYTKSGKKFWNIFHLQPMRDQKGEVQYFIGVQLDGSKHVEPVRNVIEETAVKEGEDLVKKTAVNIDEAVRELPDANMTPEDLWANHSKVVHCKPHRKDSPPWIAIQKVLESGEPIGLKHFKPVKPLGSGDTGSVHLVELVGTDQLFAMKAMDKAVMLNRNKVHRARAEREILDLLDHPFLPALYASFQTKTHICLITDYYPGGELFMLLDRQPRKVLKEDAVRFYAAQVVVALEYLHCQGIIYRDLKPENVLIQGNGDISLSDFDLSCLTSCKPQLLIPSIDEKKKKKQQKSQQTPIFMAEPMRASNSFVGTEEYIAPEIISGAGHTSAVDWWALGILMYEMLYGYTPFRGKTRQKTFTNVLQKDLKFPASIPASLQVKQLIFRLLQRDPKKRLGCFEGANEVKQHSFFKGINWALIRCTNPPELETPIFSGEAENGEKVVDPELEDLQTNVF
# Results are given in words; binding and its absence hold for the method and conditions named. Binding seen in cells or lysates may run through a third protein. Some results given as binding are weak or reduced against the parent protein; the word gives no strength. Where a sequence is shown, tags or fusion partners need not be part of it.
# T1: FLAG-CBC1 (Arabidopsis thaliana) (UniProt Q9SSA4)
# T1 sequence: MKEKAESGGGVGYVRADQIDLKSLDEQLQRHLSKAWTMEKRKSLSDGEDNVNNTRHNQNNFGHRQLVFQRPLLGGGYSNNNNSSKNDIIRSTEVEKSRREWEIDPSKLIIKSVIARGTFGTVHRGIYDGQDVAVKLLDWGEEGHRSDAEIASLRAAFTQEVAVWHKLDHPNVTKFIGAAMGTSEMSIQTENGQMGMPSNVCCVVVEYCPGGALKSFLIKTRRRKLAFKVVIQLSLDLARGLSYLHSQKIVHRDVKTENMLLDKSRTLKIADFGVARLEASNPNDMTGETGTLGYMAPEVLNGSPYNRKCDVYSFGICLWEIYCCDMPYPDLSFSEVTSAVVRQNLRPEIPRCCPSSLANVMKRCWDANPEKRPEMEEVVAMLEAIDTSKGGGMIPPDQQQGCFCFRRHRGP
# T2: FLAG-CBC2 (Arabidopsis thaliana) (UniProt Q9FGB1)
# T2 sequence: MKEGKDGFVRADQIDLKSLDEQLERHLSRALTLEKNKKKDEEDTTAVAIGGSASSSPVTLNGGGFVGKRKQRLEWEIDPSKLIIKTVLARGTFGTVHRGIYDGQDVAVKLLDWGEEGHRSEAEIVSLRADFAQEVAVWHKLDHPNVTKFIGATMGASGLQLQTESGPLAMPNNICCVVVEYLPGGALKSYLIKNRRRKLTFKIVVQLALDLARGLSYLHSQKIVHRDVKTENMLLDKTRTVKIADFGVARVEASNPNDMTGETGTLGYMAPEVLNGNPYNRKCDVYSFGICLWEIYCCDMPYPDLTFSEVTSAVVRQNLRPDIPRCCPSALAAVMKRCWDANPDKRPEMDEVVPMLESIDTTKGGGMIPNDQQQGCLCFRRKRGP
# T3: CBC2 (D245N)-nYFP, kinase-dead (Arabidopsis thaliana) (UniProt Q9FGB1)
# T3 sequence: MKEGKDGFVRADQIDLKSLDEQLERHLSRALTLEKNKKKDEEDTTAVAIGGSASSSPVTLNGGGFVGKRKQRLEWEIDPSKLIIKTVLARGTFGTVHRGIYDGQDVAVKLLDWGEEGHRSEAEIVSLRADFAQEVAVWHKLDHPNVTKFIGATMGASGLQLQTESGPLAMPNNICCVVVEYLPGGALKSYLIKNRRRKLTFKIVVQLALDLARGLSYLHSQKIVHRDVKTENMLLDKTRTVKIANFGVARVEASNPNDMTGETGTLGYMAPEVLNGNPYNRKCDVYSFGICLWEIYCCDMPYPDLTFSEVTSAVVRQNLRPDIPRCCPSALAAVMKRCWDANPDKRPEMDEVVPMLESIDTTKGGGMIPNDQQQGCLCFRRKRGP
# T4: CBC1-nYFP (Arabidopsis thaliana) (UniProt Q9SSA4)
# T4 sequence: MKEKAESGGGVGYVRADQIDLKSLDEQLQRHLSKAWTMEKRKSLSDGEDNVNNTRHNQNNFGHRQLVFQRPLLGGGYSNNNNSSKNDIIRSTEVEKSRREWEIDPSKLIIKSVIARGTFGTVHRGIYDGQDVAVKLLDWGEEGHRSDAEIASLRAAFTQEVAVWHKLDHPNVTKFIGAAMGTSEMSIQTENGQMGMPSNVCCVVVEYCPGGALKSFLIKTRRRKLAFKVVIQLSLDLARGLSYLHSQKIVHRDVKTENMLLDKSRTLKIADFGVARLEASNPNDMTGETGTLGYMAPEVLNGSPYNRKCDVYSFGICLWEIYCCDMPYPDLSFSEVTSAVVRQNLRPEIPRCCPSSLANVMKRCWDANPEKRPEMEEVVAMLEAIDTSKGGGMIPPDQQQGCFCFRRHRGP
# B1: His-CBC1 (CO… OF BL AND CO2 1 kinase) (protein, UniProt Q9SSA4 1-411)
# chain: MKEKAESGGGVGYVRADQIDLKSLDEQLQRHLSKAWTMEKRKSLSDGEDNVNNTRHNQNNFGHRQLVFQRPLLGGGYSNNNNSSKNDIIRSTEVEKSRREWEIDPSKLIIKSVIARGTFGTVHRGIYDGQDVAVKLLDWGEEGHRSDAEIASLRAAFTQEVAVWHKLDHPNVTKFIGAAMGTSEMSIQTENGQMGMPSNVCCVVVEYCPGGALKSFLIKTRRRKLAFKVVIQLSLDLARGLSYLHSQKIVHRDVKTENMLLDKSRTLKIADFGVARLEASNPNDMTGETGTLGYMAPEVLNGSPYNRKCDVYSFGICLWEIYCCDMPYPDLSFSEVTSAVVRQNLRPEIPRCCPSSLANVMKRCWDANPEKRPEMEEVVAMLEAIDTSKGGGMIPPDQQQGCFCFRRHRGP
# B2: HT1-cYFP (protein, UniProt Q2MHE4 1-390)
# chain: MSGLCFNPFRLRWSLRSKLPLEPSLPNLPCNPSSSKTNRYAEAETMEKKRFDSMESWSMILESENVETWEASKGEREEWTADLSQLFIGNKFASGAHSRIYRGIYKQRAVAVKMVRIPTHKEETRAKLEQQFKSEVALLSRLFHPNIVQFIAACKKPPVYCIITEYMSQGNLRMYLNKKEPYSLSIETVLRLALDISRGMEYLHSQGVIHRDLKSNNLLLNDEMRVKVADFGTSCLETQCREAKGNMGTYRWMAPEMIKEKPYTRKVDVYSFGIVLWELTTALLPFQGMTPVQAAFAVAEKNERPPLPASCQPALAHLIKRCWSENPSKRPDFSNIVAVLEKYDECVKEGLPLTSHASLTKTKKAILDHLKGCVTSISSPFSSSSVPVNA
# B3: His-HT1 (HIGH LEAF TEMPERATURE 1 kinase) (protein, UniProt Q2MHE4 1-390)
# chain: MSGLCFNPFRLRWSLRSKLPLEPSLPNLPCNPSSSKTNRYAEAETMEKKRFDSMESWSMILESENVETWEASKGEREEWTADLSQLFIGNKFASGAHSRIYRGIYKQRAVAVKMVRIPTHKEETRAKLEQQFKSEVALLSRLFHPNIVQFIAACKKPPVYCIITEYMSQGNLRMYLNKKEPYSLSIETVLRLALDISRGMEYLHSQGVIHRDLKSNNLLLNDEMRVKVADFGTSCLETQCREAKGNMGTYRWMAPEMIKEKPYTRKVDVYSFGIVLWELTTALLPFQGMTPVQAAFAVAEKNERPPLPASCQPALAHLIKRCWSENPSKRPDFSNIVAVLEKYDECVKEGLPLTSHASLTKTKKAILDHLKGCVTSISSPFSSSSVPVNA
# B4: His-CBC2 (CO… OF BL AND CO2 2 kinase) (protein, UniProt Q9FGB1 1-385)
# chain: MKEGKDGFVRADQIDLKSLDEQLERHLSRALTLEKNKKKDEEDTTAVAIGGSASSSPVTLNGGGFVGKRKQRLEWEIDPSKLIIKTVLARGTFGTVHRGIYDGQDVAVKLLDWGEEGHRSEAEIVSLRADFAQEVAVWHKLDHPNVTKFIGATMGASGLQLQTESGPLAMPNNICCVVVEYLPGGALKSYLIKNRRRKLTFKIVVQLALDLARGLSYLHSQKIVHRDVKTENMLLDKTRTVKIADFGVARVEASNPNDMTGETGTLGYMAPEVLNGNPYNRKCDVYSFGICLWEIYCCDMPYPDLTFSEVTSAVVRQNLRPDIPRCCPSALAAVMKRCWDANPDKRPEMDEVVPMLESIDTTKGGGMIPNDQQQGCLCFRRKRGP
# B5: CBC1-nYFP (protein, UniProt Q9SSA4 1-411)
# chain: MKEKAESGGGVGYVRADQIDLKSLDEQLQRHLSKAWTMEKRKSLSDGEDNVNNTRHNQNNFGHRQLVFQRPLLGGGYSNNNNSSKNDIIRSTEVEKSRREWEIDPSKLIIKSVIARGTFGTVHRGIYDGQDVAVKLLDWGEEGHRSDAEIASLRAAFTQEVAVWHKLDHPNVTKFIGAAMGTSEMSIQTENGQMGMPSNVCCVVVEYCPGGALKSFLIKTRRRKLAFKVVIQLSLDLARGLSYLHSQKIVHRDVKTENMLLDKSRTLKIADFGVARLEASNPNDMTGETGTLGYMAPEVLNGSPYNRKCDVYSFGICLWEIYCCDMPYPDLSFSEVTSAVVRQNLRPEIPRCCPSSLANVMKRCWDANPEKRPEMEEVVAMLEAIDTSKGGGMIPPDQQQGCFCFRRHRGP
# B6: CBC2 (D245N)-nYFP, kinase-dead (protein, UniProt Q9FGB1 1-385)
# chain: MKEGKDGFVRADQIDLKSLDEQLERHLSRALTLEKNKKKDEEDTTAVAIGGSASSSPVTLNGGGFVGKRKQRLEWEIDPSKLIIKTVLARGTFGTVHRGIYDGQDVAVKLLDWGEEGHRSEAEIVSLRADFAQEVAVWHKLDHPNVTKFIGATMGASGLQLQTESGPLAMPNNICCVVVEYLPGGALKSYLIKNRRRKLTFKIVVQLALDLARGLSYLHSQKIVHRDVKTENMLLDKTRTVKIANFGVARVEASNPNDMTGETGTLGYMAPEVLNGNPYNRKCDVYSFGICLWEIYCCDMPYPDLTFSEVTSAVVRQNLRPDIPRCCPSALAAVMKRCWDANPDKRPEMDEVVPMLESIDTTKGGGMIPNDQQQGCLCFRRKRGP
# Legend:
# [1] = target: FLAG-phot1 (phototropin 1) (Arabidopsis thaliana) (UniProt O48963); test: pull-down; His-tagged and FLAG-tagged proteins made by in vitro transcription/translation, mixed in 20 mM Tris-HCl pH 7.4, 140 mM NaCl, 0.1% Triton X-100, on ice 10 min; FLAG protein captured on anti-FLAG M2 Affinity Gel 1 h at 4 °C; bound His protein detected by immunoblot with a His tag antibody
# [2] = target: T1, FLAG-CBC1 (Arabidopsis thaliana); test: as above
# [3] = target: T2, FLAG-CBC2 (Arabidopsis thaliana); test: as above
# [4] = target: T3, CBC2 (D245N)-nYFP, kinase-dead (Arabidopsis thaliana); test: split reporter; BiFC: nYFP- and cYFP-fused constructs co-transformed into Arabidopsis mesophyll protoplasts by PEG-calcium transfection; YFP fluorescence by confocal microscopy
# [5] = target: T4, CBC1-nYFP (Arabidopsis thaliana); test: as above
# [6] = target: phot1-cYFP (Arabidopsis thaliana) (UniProt O48963); test: as above
Binder,binding [1],binding [2],binding [3],binding [6],also measured
B1,binds,binds,binds,–,–
B2,–,–,–,–,binding [4]: binds; binding [5]: binds
B3,–,binds,binds,–,–
B4,binds,binds,binds,–,–
B5,–,–,–,binds,–
B6,–,–,–,binds,–
